PubChem BioAssay AID1671195 – Yale University | 2021
Here is a random part of about 22,000 deposited reagents. Of all reagents, about 1,510 (6.9%) were called active. 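Active includes knockdowns raising or lowering LDL uptake; positive z-scores mean more uptake, negative mean less.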 A number with no mark means an inactive call.

Purpose: 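Knockdowns that increase or decrease uptake of fluorescent LDL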 (primary screen)
Cells: human Huh7 hepatoma cells
Reagents: siRNA pool against human genes, 18 nM
Time to read-out: about 2 to 2.5 days of knockdown, then 8 h LDL uptake
Challenge: DiI-labelled LDL at 30 µg/ml for 8 h, in lipoprotein-deficient serum medium
Detection: 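Fluorescent LDL signal imaged in cells, scaled to the plate median, robust z-score for each replicate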
Scale: robust z-score: higher = more LDL uptake after knockdown
Rule for the call: 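a gene counts as active if at least two replicate z-scores exceed ±2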

Against LOC442280 (retired record), the values are robust z-score, replicate 1 = -1.08; robust z-score, replicate 2 = -1.11; robust z-score, replicate 3 = 0.145. With knock-down of SMIM17, the record shows robust z-score, replicate 1 = 1.63; robust z-score, replicate 2 = 0.78; robust z-score, replicate 3 = 0.869. Depletion of NEK2 gave: robust z-score, replicate 1 = -0.614; robust z-score, replicate 2 = -1.01; robust z-score, replicate 3 = -0.561. After knock-down of ZNF576, the screen gave robust z-score, replicate 1 = -0.173; robust z-score, replicate 2 = -0.441; robust z-score, replicate 3 = 0.0571. LOC284898 scored robust z-score, replicate 1 = 0.0538; robust z-score, replicate 2 = 0.368; robust z-score, replicate 3 = -0.506. For LOC440151 (retired record), the values are robust z-score, replicate 1 = 0.74; robust z-score, replicate 2 = 0.509; robust z-score, replicate 3 = 0.234.

For ZBTB4 the deposit lists robust z-score, replicate 1 = 0.425; robust z-score, replicate 2 = -0.751; robust z-score, replicate 3 = -1.26. OR4C6 showed robust z-score, replicate 1 = -1.24; robust z-score, replicate 2 = -1.53; robust z-score, replicate 3 = -1.25. Depletion of EAF2 resulted in: robust z-score, replicate 1 = -0.0337; robust z-score, replicate 2 = -0.365; robust z-score, replicate 3 = -0.295. Knock-down of USP16 resulted in: robust z-score, replicate 1 = -0.506; robust z-score, replicate 2 = -0.129; robust z-score, replicate 3 = -0.563. Against RPS15AP17, the values are robust z-score, replicate 1 = -0.0748; robust z-score, replicate 2 = 0.172; robust z-score, replicate 3 = -0.0855. TUBGCP5 gave robust z-score, replicate 1 = 0.379; robust z-score, replicate 2 = -1.58; robust z-score, replicate 3 = -0.753.

Against LOC441119 (retired record), the entry reads robust z-score, replicate 1 = -0.303; robust z-score, replicate 2 = 0.139; robust z-score, replicate 3 = -0.255. For ZNF257, the entry reads robust z-score, replicate 1 = 1.88; robust z-score, replicate 2 = 1.09; robust z-score, replicate 3 = 1.58. Against IKBKB, the entry reads robust z-score, replicate 1 = -0.846; robust z-score, replicate 2 = -0.304; robust z-score, replicate 3 = -0.871. Knock-down of BTN3A1 came out at: robust z-score, replicate 1 = 0.462; robust z-score, replicate 2 = 0.186; robust z-score, replicate 3 = 0.176. Knock-down of LINC01550 resulted in: robust z-score, replicate 1 = -0.45; robust z-score, replicate 2 = -0.324; robust z-score, replicate 3 = -0.59. CENPT showed robust z-score, replicate 1 = 2.04 (active); robust z-score, replicate 2 = 2.04; robust z-score, replicate 3 = 2.07.

KRT27 gave robust z-score, replicate 1 = -0.139; robust z-score, replicate 2 = -0.18; robust z-score, replicate 3 = -0.174. For ARMH1 the deposit lists robust z-score, replicate 1 = -0.0538; robust z-score, replicate 2 = 0.165; robust z-score, replicate 3 = -0.0584. EMC10 showed robust z-score, replicate 1 = -0.361; robust z-score, replicate 2 = -0.639; robust z-score, replicate 3 = -0.501. For DCAF1, the entry reads robust z-score, replicate 1 = -0.0993; robust z-score, replicate 2 = 0.483; robust z-score, replicate 3 = -0.31. Knock-down of PLA2G4D came out at: robust z-score, replicate 1 = -0.0763; robust z-score, replicate 2 = 0.538; robust z-score, replicate 3 = 0.369. Against MYO1C the deposit lists robust z-score, replicate 1 = 0.512; robust z-score, replicate 2 = 1.64; robust z-score, replicate 3 = 0.385.

Reagents listed above with an active call, once more:
CENPT: robust z-score, replicate 1 = 2.04 (active); robust z-score, replicate 2 = 2.04; robust z-score, replicate 3 = 2.07
